Results taken from publication PMC4608684.
These are yes or no findings as the source states them, for the method shown. Binding seen in cells or lysates may run through a third protein. Some entries that bind do so weakly or less than the wild type. Sequences can lack the tags named with a protein.

T1: His6-Cpr7 (purified, from pET29bHTV-CPR7) (S. cerevisiae) (UniProt P47103)
T1 sequence: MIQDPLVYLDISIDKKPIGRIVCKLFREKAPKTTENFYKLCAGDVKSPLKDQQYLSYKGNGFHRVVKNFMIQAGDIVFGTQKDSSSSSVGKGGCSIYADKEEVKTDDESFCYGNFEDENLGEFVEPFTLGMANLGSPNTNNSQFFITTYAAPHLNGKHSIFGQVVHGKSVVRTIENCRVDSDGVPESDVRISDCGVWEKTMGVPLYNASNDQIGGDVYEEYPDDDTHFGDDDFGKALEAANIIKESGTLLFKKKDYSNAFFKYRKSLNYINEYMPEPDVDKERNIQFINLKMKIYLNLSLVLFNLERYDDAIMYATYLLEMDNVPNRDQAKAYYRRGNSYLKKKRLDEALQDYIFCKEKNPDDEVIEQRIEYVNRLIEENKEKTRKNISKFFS

T2: His6-Cpr7 (expressed in yeast from pRS413PTEF-His6-CPR7) (S. cerevisiae) (UniProt P47103)
T2 sequence: T1 sequence

B1: Ure2 (endogenous, yeast lysate) (protein, UniProt P23202 1-354)
chain: MMNNNGNQVSNLSNALRQVNIGNRNSNTTTDQSNINFEFSTGVNNNNNNNSSSNNNNVQNNNSGRNGSQNNDNENNIKNTLEQHRQQQQAFSDMSHVEYSRITKFFQEQPLEGYTLFSHRSAPNGFKVAIVLSELGFHYNTIFLDFNLGEHRAPEFVSVNPNARVPALIDHGMDNLSIWESGAILLHLVNKYYKETGNPLLWSDDLADQSQINAWLFFQTSGHAPMIGQALHFRYFHSQKIASAVERYTDEVRRVYGVVEMALAERREALVMELDTENAAAYSAGTTPMSQSRFFDYPVWLVGDKLTIADLAFVPWNNVVDRIGINIKIEFPEVYKWTKHMMRRPAVIKALRGE
B2: Ure2-GFP (expressed in yeast from pRS426PGPD-URE2-GFP) (protein, UniProt P23202 1-354)
chain: B1 chain

How the values were obtained:
[1] = biological target: T1, His6-Cpr7 (purified, from pET29bHTV-CPR7) (S. cerevisiae); assay: pull-down; purified His6-Cpr7 adsorbed on cobalt metal affinity resin, incubated with supernatant of yeast lysate (cells with Hsp82 or Hsp82ΔMEEVD as sole Hsp90); washed; eluted with 25 mM EDTA; immunoblot with anti-Ure2, anti-Hsp90 and anti-His6; only the target purified
[2] = biological target: T2, His6-Cpr7 (expressed in yeast from pRS413PTEF-His6-CPR7) (S. cerevisiae); assay: pull-down; lysate (5 mg protein) of SY187 [ure-o] co-expressing His6-Cpr7 and Ure2-GFP or GFP, loaded on cobalt metal affinity resin at 4°C for 2 h; washed; eluted with 25 mM EDTA; immunoblot with anti-GFP or anti-His6

Molecule	binding [1]	binding [2]
Hsp82 (expressed as sole Hsp90 in yeast) (from UniProt P02829 1-709)	binds	–
B1	binds	–
B2	–	binds
